# Source: patent publication US20230200424A1, “COMPOSITIONS COMPRISING CYS-PEPTIDES” (Evonik Operations GmbH, priority 2020, published 2023)
# Part of at least one peptide drawing is inferred or uncertain, most often the ends. Where a SMILES comes first, the peptide text is derived from it. Bridges are numbered along the chain shown (N, C = ends). Roman numbers before positions name the chains, in order.
# Assay: Stabilization of 25 mM and 50 mM cysteine solutions against precipitation by Cys-dipeptides under oxidizing conditions (H2O2), turbidity at 600 nm
# Assay type: physicochemical
# Conditions: H2O2 added, after 4.5 hours
# Protocol: Turbidity caused by precipitation was measured photometrically at 600 nm in a microtiter plate-based assay. Liquid volume per well was 200 μl and measurements were conducted over 24 hours at 37° C. in a microplate reader (Tecan). The plates were not covered with a lid.
# An experiment as described in example 1 was conducted in a microtiter plate. After two hours of incubation at 37° C., 14 μl of a 5 weight % H2O2 solution were added to each well to accelerate oxidation and evaluate stabilization under fully oxidized conditions. […] Turbidity measurements in the microplate reader were continued subsequently. Results are shown in Fehler! Verweisquelle konnte nicht gefunden werden.
# To evaluate if the above described stabilization is also possible by addition of other Cys-dipeptides, experiments as described in example 4 were conducted with the exception that reduced cysteine concentrations of 50 mM and 25 mM were used and that the concentrations of added Cys-dipeptides were 0 (=control), 5, 10, 25 and 50 mM. The effect of (Asp-Cys)2, (Cys-Asp)2, (Lys-Cys)2, (Cys-Lys)2, (Ala-Cys)2 and (Pro-Cys)2 was evaluated. All Cys-peptides were able to prevent precipitation from the cysteine solutions after addition of H2O2 Differences in stabilization efficiency were observed between the various Cys-Peptides at cysteine concentrations of 50 mM. The Cys-dipeptides containing lysine residues were the most efficient stabilizers and a molar Cys-peptide to cysteine ratio between 1:2 and 1:5 provided sufficient stability.
smiles,measurement,setting,value
C[C@H](N)C(=O)N[C@@H](CSSC[C@H](NC(=O)[C@H](C)N)C(=O)O)C(=O)O [(Ala-Cys)2] (I: H-Ala-Cys-OH / II: H-Ala-Cys-OH; disulfide I:2-II:2; N-terminus and C-terminus assumed),Turbidity at 600 nm,"25 mM cysteine solution, Cys-peptide 5 mM",0.039 AU
same,Turbidity at 600 nm,"25 mM cysteine solution, Cys-peptide 10 mM",0.037 AU
same,Turbidity at 600 nm,"25 mM cysteine solution, Cys-peptide 25 mM",0.037 AU
same,Turbidity at 600 nm,"25 mM cysteine solution, Cys-peptide 50 mM",0.050 AU
same,Turbidity at 600 nm,"50 mM cysteine solution, Cys-peptide 5 mM",1.052 AU
same,Turbidity at 600 nm,"50 mM cysteine solution, Cys-peptide 10 mM",1.129 AU
same,Turbidity at 600 nm,"50 mM cysteine solution, Cys-peptide 25 mM",0.037 AU
same,Turbidity at 600 nm,"50 mM cysteine solution, Cys-peptide 50 mM",0.039 AU
